Assay results: the supplement of paper PMC6411743
± gives the standard deviation of the averaged measurements. The entries are a selection whose mix differs from that of the whole data set.

Protein sequences, listed by entry. Tags and fused reporters are not part of them. Lines headed by an entry give the natural chain unless they say otherwise; changes in a name come on top.
UniProt P57105: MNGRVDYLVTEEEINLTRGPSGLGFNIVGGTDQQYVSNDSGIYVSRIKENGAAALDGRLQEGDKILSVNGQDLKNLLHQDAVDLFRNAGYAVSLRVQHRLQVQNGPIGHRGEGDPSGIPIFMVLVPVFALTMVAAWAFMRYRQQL
UniProt Q96JB1: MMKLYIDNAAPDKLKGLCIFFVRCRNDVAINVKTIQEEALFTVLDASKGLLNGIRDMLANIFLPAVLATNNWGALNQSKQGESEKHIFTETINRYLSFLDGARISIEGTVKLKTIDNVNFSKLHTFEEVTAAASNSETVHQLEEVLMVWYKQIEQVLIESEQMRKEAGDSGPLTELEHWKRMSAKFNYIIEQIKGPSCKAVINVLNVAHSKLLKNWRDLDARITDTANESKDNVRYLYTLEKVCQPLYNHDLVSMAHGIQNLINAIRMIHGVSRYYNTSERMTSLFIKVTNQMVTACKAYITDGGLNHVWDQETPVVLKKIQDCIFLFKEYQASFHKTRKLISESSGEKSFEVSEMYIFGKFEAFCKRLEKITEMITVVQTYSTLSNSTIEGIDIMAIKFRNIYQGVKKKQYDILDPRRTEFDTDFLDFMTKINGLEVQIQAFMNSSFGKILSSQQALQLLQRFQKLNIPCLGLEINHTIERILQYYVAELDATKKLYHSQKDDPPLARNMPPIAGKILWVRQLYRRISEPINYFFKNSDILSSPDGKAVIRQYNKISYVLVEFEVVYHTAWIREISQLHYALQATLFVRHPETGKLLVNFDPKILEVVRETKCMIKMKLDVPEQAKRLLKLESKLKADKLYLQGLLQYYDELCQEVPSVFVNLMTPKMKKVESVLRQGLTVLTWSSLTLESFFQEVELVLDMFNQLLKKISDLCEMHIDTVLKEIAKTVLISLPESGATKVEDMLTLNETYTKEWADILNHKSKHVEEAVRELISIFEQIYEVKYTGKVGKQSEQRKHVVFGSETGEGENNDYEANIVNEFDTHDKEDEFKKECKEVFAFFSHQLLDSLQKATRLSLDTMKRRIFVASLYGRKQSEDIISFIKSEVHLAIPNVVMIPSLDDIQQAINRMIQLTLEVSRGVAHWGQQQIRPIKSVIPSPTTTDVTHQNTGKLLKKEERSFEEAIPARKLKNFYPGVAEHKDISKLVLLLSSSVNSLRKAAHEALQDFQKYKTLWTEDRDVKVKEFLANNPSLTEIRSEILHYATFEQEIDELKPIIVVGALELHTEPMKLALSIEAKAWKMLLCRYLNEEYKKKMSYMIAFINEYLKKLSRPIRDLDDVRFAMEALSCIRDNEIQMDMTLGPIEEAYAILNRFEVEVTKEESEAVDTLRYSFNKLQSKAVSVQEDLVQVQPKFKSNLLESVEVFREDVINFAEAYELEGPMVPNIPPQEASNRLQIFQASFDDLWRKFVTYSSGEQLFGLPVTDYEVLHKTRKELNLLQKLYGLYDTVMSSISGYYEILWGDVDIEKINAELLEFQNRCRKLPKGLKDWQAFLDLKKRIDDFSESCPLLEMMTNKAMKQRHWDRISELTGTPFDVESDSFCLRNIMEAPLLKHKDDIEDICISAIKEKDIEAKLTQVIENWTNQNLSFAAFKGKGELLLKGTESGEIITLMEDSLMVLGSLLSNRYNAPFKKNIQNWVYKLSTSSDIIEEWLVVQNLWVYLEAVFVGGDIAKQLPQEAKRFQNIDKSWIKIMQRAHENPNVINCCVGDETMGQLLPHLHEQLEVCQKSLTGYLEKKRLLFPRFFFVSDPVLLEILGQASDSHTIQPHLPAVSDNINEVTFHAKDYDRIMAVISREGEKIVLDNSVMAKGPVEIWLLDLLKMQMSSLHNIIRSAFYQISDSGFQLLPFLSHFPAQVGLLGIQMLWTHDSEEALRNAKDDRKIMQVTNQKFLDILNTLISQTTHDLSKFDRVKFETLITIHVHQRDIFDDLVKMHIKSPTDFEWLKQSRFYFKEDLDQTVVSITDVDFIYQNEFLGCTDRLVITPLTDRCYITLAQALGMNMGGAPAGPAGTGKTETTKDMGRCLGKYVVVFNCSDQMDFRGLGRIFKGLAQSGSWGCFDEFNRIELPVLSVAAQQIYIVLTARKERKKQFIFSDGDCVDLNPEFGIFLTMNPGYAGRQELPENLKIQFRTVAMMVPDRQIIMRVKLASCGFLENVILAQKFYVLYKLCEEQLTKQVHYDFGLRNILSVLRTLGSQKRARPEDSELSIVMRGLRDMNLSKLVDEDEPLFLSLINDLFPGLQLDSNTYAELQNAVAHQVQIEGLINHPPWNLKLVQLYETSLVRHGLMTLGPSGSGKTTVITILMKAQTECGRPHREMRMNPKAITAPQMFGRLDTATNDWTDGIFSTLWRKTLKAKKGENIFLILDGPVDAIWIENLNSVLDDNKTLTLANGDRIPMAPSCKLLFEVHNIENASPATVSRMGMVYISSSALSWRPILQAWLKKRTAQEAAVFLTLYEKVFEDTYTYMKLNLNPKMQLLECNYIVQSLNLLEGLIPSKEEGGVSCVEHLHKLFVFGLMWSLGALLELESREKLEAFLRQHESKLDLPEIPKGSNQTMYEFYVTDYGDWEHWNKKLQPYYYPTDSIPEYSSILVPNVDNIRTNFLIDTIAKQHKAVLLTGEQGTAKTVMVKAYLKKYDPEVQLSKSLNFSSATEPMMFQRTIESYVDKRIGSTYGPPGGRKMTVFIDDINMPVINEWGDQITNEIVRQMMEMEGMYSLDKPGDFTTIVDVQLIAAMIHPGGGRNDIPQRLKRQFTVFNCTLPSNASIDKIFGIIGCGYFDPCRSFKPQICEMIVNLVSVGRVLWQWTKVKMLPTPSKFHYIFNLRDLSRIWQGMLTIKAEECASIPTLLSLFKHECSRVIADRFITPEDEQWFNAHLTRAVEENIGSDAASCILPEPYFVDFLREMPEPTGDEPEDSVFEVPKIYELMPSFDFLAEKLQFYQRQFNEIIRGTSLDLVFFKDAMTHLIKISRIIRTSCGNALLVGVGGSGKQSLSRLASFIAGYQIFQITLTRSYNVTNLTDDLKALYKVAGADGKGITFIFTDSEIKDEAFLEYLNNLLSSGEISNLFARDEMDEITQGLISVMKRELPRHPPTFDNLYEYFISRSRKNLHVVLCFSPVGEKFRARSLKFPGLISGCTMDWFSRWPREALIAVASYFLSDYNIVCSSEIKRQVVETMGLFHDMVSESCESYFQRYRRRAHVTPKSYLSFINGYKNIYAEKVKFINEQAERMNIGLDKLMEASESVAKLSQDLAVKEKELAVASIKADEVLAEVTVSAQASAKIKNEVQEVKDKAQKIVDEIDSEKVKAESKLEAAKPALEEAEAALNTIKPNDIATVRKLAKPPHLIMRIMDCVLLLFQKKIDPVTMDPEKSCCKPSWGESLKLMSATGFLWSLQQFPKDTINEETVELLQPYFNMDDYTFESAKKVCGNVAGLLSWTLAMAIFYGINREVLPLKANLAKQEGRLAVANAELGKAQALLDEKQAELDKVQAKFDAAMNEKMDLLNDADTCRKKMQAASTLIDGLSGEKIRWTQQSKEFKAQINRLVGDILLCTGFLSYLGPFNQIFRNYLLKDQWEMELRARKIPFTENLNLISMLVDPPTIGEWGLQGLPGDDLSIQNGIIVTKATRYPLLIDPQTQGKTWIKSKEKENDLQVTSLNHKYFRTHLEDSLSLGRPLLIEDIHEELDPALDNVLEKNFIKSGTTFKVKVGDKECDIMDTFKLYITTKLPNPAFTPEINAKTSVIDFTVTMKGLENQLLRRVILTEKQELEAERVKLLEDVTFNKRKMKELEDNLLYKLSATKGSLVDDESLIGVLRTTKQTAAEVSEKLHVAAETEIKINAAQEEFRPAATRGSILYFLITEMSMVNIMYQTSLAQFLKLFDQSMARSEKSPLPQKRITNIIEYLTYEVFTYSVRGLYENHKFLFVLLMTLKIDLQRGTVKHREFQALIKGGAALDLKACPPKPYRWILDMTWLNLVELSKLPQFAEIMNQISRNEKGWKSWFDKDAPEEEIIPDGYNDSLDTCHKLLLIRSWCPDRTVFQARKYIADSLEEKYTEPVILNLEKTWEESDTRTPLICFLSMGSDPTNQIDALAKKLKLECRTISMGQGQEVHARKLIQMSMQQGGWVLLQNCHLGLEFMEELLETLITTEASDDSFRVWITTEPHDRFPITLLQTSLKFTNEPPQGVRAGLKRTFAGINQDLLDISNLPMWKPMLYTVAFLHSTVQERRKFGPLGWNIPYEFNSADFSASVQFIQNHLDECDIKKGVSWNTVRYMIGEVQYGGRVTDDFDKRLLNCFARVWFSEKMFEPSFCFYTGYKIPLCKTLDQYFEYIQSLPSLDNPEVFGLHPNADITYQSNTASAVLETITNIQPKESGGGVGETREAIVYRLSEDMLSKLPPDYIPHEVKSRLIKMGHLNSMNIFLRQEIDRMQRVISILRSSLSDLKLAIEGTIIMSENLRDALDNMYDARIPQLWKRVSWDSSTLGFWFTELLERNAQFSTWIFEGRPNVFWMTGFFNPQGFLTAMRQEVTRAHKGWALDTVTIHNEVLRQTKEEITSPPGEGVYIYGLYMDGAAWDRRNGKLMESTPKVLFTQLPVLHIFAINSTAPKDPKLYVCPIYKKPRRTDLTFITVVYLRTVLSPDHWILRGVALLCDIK
UniProt Q6UXV4: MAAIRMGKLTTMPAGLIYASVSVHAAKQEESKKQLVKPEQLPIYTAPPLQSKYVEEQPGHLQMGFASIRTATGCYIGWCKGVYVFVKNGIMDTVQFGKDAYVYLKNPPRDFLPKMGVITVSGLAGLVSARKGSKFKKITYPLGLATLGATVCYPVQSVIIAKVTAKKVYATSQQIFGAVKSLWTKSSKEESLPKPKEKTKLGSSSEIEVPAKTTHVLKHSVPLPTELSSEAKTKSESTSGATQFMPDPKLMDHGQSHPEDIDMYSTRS
UniProt P49720: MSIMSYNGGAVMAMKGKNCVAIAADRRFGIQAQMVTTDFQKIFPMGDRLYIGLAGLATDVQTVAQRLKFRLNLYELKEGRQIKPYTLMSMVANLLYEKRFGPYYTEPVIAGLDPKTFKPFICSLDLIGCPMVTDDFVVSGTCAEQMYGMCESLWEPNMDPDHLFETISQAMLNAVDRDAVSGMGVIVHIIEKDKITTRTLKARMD
UniProt Q16760: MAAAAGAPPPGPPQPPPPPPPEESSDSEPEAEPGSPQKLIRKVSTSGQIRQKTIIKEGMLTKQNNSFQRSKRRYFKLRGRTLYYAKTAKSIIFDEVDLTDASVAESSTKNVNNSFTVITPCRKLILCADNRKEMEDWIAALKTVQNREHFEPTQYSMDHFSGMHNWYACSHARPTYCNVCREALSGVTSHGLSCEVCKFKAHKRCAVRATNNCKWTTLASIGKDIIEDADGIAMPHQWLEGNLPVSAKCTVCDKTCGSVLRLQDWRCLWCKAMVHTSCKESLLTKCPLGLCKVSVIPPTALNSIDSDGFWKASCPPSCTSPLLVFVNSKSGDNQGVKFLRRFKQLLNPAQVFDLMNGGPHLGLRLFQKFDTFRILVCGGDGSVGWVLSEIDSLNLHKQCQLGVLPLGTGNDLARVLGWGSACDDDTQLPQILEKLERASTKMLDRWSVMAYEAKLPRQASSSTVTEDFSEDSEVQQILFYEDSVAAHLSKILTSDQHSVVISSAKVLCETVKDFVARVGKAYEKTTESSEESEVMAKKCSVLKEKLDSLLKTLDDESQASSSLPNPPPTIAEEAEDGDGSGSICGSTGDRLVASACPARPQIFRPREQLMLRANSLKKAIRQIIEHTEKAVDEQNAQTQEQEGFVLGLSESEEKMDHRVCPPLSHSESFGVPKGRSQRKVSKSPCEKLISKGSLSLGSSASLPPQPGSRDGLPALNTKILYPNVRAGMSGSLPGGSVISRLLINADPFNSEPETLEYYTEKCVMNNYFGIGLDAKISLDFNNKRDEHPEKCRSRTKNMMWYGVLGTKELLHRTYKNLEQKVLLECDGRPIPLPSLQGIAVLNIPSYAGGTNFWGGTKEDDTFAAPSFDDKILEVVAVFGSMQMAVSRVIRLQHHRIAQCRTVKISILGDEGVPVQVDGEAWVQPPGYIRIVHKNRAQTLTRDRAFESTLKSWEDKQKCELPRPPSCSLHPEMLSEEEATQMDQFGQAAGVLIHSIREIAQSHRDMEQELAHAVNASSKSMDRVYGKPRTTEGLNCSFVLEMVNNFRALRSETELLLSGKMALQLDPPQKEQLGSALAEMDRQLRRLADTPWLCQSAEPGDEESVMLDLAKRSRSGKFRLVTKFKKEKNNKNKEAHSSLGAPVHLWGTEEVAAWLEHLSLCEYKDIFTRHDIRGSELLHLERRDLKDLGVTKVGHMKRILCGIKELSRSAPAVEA
UniProt Q9H299: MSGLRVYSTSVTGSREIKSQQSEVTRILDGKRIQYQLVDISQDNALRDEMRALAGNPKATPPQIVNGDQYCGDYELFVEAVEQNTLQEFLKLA
UniProt Q8N5I9: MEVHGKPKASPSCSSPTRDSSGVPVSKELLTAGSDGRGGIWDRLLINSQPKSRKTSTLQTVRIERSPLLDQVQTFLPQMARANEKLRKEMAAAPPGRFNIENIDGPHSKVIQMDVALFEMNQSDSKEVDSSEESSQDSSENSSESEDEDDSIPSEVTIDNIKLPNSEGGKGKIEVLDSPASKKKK

Compound: Nc1ncnc2c1ncn2[C@@H]1O[C@H](COP(=O)(O)OP(=O)(O)NP(=O)(O)O)[C@@H](O)[C@H]1O [adenylyl imidodiphosphate]
Experiment: NP40-soluble protein abundance relative to vehicle (solubility fold change) (ratio); higher = more soluble protein in presence of AMP-PNP
Method in brief: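 Values are fold changes against the detergent-processed vehicle, based on vsn-normalised intensities. Jurkat crude lysate was treated at eight concentrations from 0.1 to 10 mM (10 min at room temperature, then 3 min at 37 °C), solubilised with 0.8% NP40 and benzonase, ultracentrifuged and analysed by TMT-labelled LC-MS/MS over three independent experiments.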

Target	NP40-soluble protein abundance (concentration: 1mM)	NP40-soluble protein abundance (concentration: 2mM)	NP40-soluble protein abundance (concentration: 4mM)	NP40-soluble protein abundance (concentration: 6mM)	NP40-soluble protein abundance (concentration: 8mM)	NP40-soluble protein abundance (concentration: 10mM)
A0A087WT44|P30519 and related entries (UniProt P30519)	1.031 ± 0.0061	1.05 ± 0.037	1.04 ± 0.041	0.9921 ± 0.0045	0.982 ± 0.023	0.979 ± 0.044
A0A087WUM0 (UniProt P57105)	1.01 ± 0.032	0.986 ± 0.04	0.967 ± 0.029	0.962 ± 0.037	0.958 ± 0.028	0.959 ± 0.036
A0A087WU53|Q9H0U3 (UniProt Q9H0U3)	0.944 ± 0.055	0.8894 ± 0.0073	0.949 ± 0.041	1.02 ± 0.057	1.03 ± 0.038	0.95 ± 0.04
A0A024R644|O75503 (UniProt O75503)	1.01 ± 0.037	1.05 ± 0.11	1.05 ± 0.044	1.06 ± 0.044	1.09 ± 0.053	1.09 ± 0.062
A0A075B6F3|H0Y7V4 and related entries (UniProt Q96JB1)	0.9597 ± 0.0067	1.02 ± 0.035	0.919 ± 0.024	0.947 ± 0.059	0.865 ± 0.025	0.882 ± 0.012
A0A087WVN1|Q5JPI9 (UniProt Q5JPI9)	0.994 ± 0.021	0.995 ± 0.021	1.11 ± 0.063	1.032 ± 0.0056	1.04 ± 0.014	1.01 ± 0.03
A0A087WUQ6|P07203 (UniProt P07203)	1.02 ± 0.017	1.06 ± 0.029	1.031 ± 0.0073	0.997 ± 0.02	0.998 ± 0.025	0.996 ± 0.011
A0A087WT20|Q9NV06 (UniProt Q9NV06)	1.026 ± 0.0096	0.995 ± 0.017	1.04 ± 0.015	0.997 ± 0.018	1.027 ± 0.0046	0.991 ± 0.023
A0A087WUX8|A0A087WYF7|Q6UXV4 (UniProt Q6UXV4)	1.06 ± 0.049	1.08 ± 0.052	1.06 ± 0.05	1.06 ± 0.049	1.08 ± 0.038	1.06 ± 0.026
A0A087WUL2|P49720 (UniProt P49720)	0.888 ± 0.051	0.806 ± 0.034	0.937 ± 0.12	1.03 ± 0.15	1.1 ± 0.13	1.08 ± 0.18
A0A087WUZ9|Q16760 and related entries (UniProt Q16760)	0.964 ± 0.024	1.01 ± 0.026	1.07 ± 0.089	1.07 ± 0.022	1.09 ± 0.045	1.05 ± 0.054
A0A087WU02|F8VPA6 and related entries (UniProt Q96RQ1)	0.938 ± 0.053	0.957 ± 0.044	0.954 ± 0.059	0.958 ± 0.053	0.971 ± 0.064	0.981 ± 0.01
A0A087WTU3|Q9Y6I9 (UniProt Q9Y6I9)	1.03 ± 0.02	1.02 ± 0.034	1.03 ± 0.021	1 ± 0.012	1.01 ± 0.015	0.983 ± 0.035
A0A087WV23|Q5T123 and related entries (UniProt Q9H299)	0.988 ± 0.042	1.01 ± 0.06	0.945 ± 0.02	0.998 ± 0.03	0.973 ± 0.042	0.962 ± 0.039
A0A087WT30|Q8N5I9 (UniProt Q8N5I9)	1.22 ± 0.044	1.25 ± 0.072	1.18 ± 0.02	1.16 ± 0.036	1.14 ± 0.035	1.14 ± 0.041
A0A087WUW5|A0A0U1RRM4|A6NLN1 and related entries (UniProt P26599)	1.02 ± 0.032	1.06 ± 0.064	1.04 ± 0.035	1.03 ± 0.036	1.03 ± 0.024	1.06 ± 0.027
A0A087WW06|Q96AY4 (UniProt Q96AY4)	0.995 ± 0.017	1.01 ± 0.011	0.969 ± 0.011	1.005 ± 0.0099	0.97961 ± 0.00025	0.957 ± 0.03

Not a retest: entries from further up.
Target	NP40-soluble protein abundance (concentration: 1mM)	NP40-soluble protein abundance (concentration: 2mM)	NP40-soluble protein abundance (concentration: 4mM)	NP40-soluble protein abundance (concentration: 6mM)	NP40-soluble protein abundance (concentration: 8mM)	NP40-soluble protein abundance (concentration: 10mM)
A0A087WUZ9|Q16760 and related entries (UniProt Q16760)	0.964 ± 0.024	1.01 ± 0.026	1.07 ± 0.089	1.07 ± 0.022	1.09 ± 0.045	1.05 ± 0.054
A0A087WU02|F8VPA6 and related entries (UniProt Q96RQ1)	0.938 ± 0.053	0.957 ± 0.044	0.954 ± 0.059	0.958 ± 0.053	0.971 ± 0.064	0.981 ± 0.01
